The text below walks through data of doi:10.1101/2025.06.13.659557.

Amino acid sequences for entries named in this document (tags omitted).
UniProt Q96KP1: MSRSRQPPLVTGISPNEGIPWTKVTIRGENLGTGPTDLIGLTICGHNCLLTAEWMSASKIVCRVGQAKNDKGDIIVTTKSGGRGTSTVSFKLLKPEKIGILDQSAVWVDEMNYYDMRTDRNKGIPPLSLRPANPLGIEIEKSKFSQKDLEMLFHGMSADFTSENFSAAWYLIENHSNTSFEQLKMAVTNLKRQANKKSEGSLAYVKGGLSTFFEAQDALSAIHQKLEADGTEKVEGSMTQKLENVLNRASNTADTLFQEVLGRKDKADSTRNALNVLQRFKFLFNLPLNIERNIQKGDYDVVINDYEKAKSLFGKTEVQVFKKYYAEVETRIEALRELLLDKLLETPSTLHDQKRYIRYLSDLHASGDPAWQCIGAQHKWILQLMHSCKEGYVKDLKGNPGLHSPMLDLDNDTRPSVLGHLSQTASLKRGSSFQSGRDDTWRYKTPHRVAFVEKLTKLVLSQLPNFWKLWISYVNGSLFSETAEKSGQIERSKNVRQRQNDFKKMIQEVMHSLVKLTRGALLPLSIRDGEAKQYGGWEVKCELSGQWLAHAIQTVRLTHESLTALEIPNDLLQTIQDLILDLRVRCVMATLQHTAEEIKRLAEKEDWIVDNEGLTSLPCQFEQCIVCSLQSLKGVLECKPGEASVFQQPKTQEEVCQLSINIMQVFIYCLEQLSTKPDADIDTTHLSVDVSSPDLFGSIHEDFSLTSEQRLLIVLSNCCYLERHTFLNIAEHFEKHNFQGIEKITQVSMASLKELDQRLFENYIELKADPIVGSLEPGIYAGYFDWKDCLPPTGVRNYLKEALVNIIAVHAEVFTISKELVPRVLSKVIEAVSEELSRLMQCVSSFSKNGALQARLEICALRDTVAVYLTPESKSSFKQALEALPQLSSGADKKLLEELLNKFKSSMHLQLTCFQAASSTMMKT

Results are given in words; binding and its absence hold for the method and conditions named. In cells and extracts the contact can be indirect. Some results given as binding are weak or reduced against the parent protein; the word gives no strength.

The assay deals with T1, mCherry-RalB (UniProt P11234).
T1 sequence: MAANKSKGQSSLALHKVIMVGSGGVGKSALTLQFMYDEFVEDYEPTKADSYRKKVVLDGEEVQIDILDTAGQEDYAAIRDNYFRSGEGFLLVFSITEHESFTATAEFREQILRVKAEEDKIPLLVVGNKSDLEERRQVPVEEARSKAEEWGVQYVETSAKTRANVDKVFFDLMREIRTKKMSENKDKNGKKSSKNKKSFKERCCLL
Description: co-IP.

Consider “Sec5-NanoLuc (from UniProt Q96KP1 1-924)”, for which the binding entry is “binds”.
